Data on five molecules can be found in patent publication US20110217318A1.

Assay [1] addresses human GPVI extracellular region-human Fc fusion protein (hGPVI-hFc) (human). The assay can be described thus: binding to antigen of co-expressed chains; antigen construct not named.
For assay [2], the target named is cynomolgus monkey GPVI on cynomolgus monkey platelets (cynomolgus monkey). Nature of the assay: flow cytometry on platelets, 10 µg/mL, anti-human IgG-FITC.
Assay [3] has as its target cynomolgus monkey D1D2-human D3 chimeric GPVI-human Fc fusion protein (GPVI-FFH-hFc) (cynomolgus monkey (D1, D2), human (D3)). Nature of the assay: ELISA on immobilised GPVI-FFH-hFc, anti-human kappa detection. On the technique in general: An ELISA detects its analyte on a solid surface through an enzyme-linked reagent.

No constants are given. Whether binding was seen depends on the method and setting. Some entries that bind do so weakly or less than the wild type.

B1: F1232-37-2 humanized heavy chain Eu-HC with the chimeric light chain (antibody, V domains shown)
VH: QVQLVQSGAEVKKPGSSVKVSCKASGGTFSDYAIHWVRQAPGQGLEWIGVISIYYDDTNYNQKFKGKATITADESTNTAYMELSSLRSEDTAIYYCARRRDSSGPYAMDYWGQGTLVTVSS
VL: DIVLTQSPASLAVSLGQRATISCRASESVDSYGNSFMHWYQQKPGQPPKLLIYRASNLESGIPARFSGSGSRTDFTLTINPVEADDVATYYCQQSNEDPYTFGGGTKLEIKR
Regarding B1, the binding entry in assay [1] is given as “binds”.

B2: cF1232-37-2S (antibody, V domains shown)
VH: VQLQQSGPELVRPGESVKISCKGSGYTFTDYAIHWVKLSHAKSLEWIGVISIYYDDTNYNQKFKGKATMTVDKSSSTAYLELARLTSEDSAIYYCARRRDSSGPYAMDYWGQGTSVTVSS
VL: DIVLTQSPASLAVSLGQRATISCRASESVDSYGNSFMHWYQQKPGQPPKLLIYRASNLESGIPARFSGSGSRTDFTLTINPVEADDVATYYCQQSNEDPYTFGGGTKLEIKR
As for B2, in assay [2], the binding result is listed as “binds”.

B3: anti-GPVI mouse-human chimeric antibody (Clone No. F1232-7-1) (antibody, human IgG4, V domains shown)
VH: VQLQQSGPELVRPGESVKISCKGSGYTFTDYAIHWVKLSHAKSLEWIGVISIYYDDTNYNQKFKGKATMTVDKSSSTAYMELARLTSEDSAIYYCARRRDSSGPYAMDYWGQGTSVTVSS
VL: DIVLTQSPASLAVSLGQRATISCRASESVDSYGNSFMHWYQQKPGQPPKLLIYRASNLESGIPARFSGSGSRTDFTLTINPVEADDVATYYCQQSNEDPYTFGGGTKLEIKR
Turning to B3, the binding entry in assay [3] is “binds”.

B4: chimeric F1232-37-2 heavy chain with humanized light chain REI-KA (antibody, human IgG4, V domains shown)
VH: VQLQQSGPELVRPGESVKISCKGSGYTFTDYAIHWVKLSHAKSLEWIGVISIYYDDTNYNQKFKGKATMTVDKSSSTAYLELARLTSEDSAIYYCARRRDSSGPYAMDYWGQGTSVTVSS
VL: DIQMTQSPSSLSASVGDRVTITCRASESVDSYGNSFMHWYQQKPGKAPKLLIYRASNLESGVPSRFSGSGSGTDFTFTISSLQPEDIATYYCQQSNEDPYTFGQGTKVEIKR
For the molecule B4, in assay [1], the binding result was “binds”.

B5: chimeric F1232-37-2 heavy chain with humanized light chain Eu-KA (antibody, human IgG4, V domains shown)
VH: VQLQQSGPELVRPGESVKISCKGSGYTFTDYAIHWVKLSHAKSLEWIGVISIYYDDTNYNQKFKGKATMTVDKSSSTAYLELARLTSEDSAIYYCARRRDSSGPYAMDYWGQGTSVTVSS
VL: DIQMTQSPSTLSASVGDRVTITCRASESVDSYGNSFMHWYQQKPGKAPKLLMYRASNLESGVPSRFIGSGSGTEFTLTISSLQPDDFATYYCQQSNEDPYTFGQGTKVEVKR
In the case of B5, the binding entry in assay [1] is “binds”.
